Experimental findings from article PMC10724393, “FOXA2 Suppression by TRIM36 Exerts Anti‐Tumor Role in Colorectal Cancer Via Inducing NRF2/GPX4‐Regulated Ferroptosis” (Advanced Science, 2023) are described below.

Assay [1] deals with T1, Flag-tagged FOXA2 (human) (UniProt Q9Y261).
T1 sequence: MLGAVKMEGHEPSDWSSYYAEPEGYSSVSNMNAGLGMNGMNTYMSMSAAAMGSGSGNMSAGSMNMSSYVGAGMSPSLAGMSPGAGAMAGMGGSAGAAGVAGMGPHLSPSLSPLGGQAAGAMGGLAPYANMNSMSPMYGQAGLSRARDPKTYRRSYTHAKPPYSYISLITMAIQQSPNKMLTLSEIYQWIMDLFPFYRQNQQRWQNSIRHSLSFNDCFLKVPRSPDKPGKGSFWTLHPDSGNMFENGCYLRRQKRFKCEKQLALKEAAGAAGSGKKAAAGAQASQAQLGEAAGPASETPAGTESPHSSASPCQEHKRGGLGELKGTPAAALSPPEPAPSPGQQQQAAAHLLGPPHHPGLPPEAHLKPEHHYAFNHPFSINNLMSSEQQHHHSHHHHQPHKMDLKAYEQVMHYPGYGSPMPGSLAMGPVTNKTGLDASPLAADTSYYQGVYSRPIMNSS
Put plainly: co-IP; HEK293T cells transfected with Flag-tagged FOXA2 and HA-tagged TRIM36; lysates in IP buffer, antibodies and Protein G agarose beads, 4 °C overnight; blots with anti-Flag and anti-HA.

Assay [2] addresses T2, FOXA2 in colon cancer cells (HCT-116 and SW480) (human) (UniProt Q9Y261).
T2 sequence: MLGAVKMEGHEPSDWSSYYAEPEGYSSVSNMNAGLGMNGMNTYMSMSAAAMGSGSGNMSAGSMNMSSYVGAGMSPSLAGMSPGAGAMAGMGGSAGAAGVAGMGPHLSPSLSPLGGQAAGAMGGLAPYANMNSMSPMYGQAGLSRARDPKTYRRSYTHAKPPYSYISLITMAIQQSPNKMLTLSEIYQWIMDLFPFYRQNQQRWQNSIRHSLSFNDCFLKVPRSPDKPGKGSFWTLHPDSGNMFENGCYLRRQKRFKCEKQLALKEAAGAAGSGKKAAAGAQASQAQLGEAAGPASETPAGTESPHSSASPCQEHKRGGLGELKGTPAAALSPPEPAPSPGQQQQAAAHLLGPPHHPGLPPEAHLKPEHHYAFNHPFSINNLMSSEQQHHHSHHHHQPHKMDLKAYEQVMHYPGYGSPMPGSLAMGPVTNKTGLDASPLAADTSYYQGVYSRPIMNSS
Description: co-IP; colon cancer cells (HCT-116 and SW480), Figure S9A,B; lysates in IP buffer, antibodies and Protein G agarose beads, 4 °C overnight.

These are yes or no findings as the source states them, for the method shown. In cells and extracts the contact can be indirect. Some entries that bind do so weakly or less than the wild type. For some assays here: Tags and fused reporters may be left off the sequences shown.

B1: HA-tagged TRIM36 (protein, UniProt Q9NQ86 1-728)
chain: MSESGEMSEFGYIMELIAKGKVTIKNIERELICPACKELFTHPLILPCQHSICHKCVKELLLTLDDSFNDVGSDNSNQSSPRLRLPSPSMDKIDRINRPGWKRNSLTPRTTVFPCPGCEHDVDLGERGINGLFRNFTLETIVERYRQAARAATAIMCDLCKPPPQESTKSCMDCSASYCNECFKIHHPWGTIKAQHEYVGPTTNFRPKILMCPEHETERINMYCELCRRPVCHLCKLGGNHANHRVTTMSSAYKTLKEKLSKDIDYLIGKESQVKSQISELNLLMKETECNGERAKEEAITHFEKLFEVLEERKSSVLKAIDSSKKLRLDKFQTQMEEYQGLLENNGLVGYAQEVLKETDQSCFVQTAKQLHLRIQKATESLKSFRPAAQTSFEDYVVNTSKQTELLGELSFFSSGIDVPEINEEQSKVYNNALINWHHPEKDKADSYVLEYRKINRDDEMSWNEIEVCGTSKIIQDLENSSTYAFRVRAYKGSICSPCSRELILHTPPAPVFSFLFDEKCGYNNEHLLLNLKRDRVESRAGFNLLLAAERIQVGYYTSLDYIIGDTGITKGKHFWAFRVEPYSYLVKVGVASSDKLQEWLRSPRDAVSPRYEQDSGHDSGSEDACFDSSQPFTLVTIGMQKFFIPKSPTSSNEPENRVLPMPTSIGIFLDCDKGKVDFYDMDQMKCLYERQVDCSHTLYPAFALMGSGGIQLEEPITAKYLEYQEDM
For B1, the binding result in assay [1] was “binds”.

B2: TRIM36 in colon cancer cells (HCT-116 and SW480) (protein, UniProt Q9NQ86 1-728)
chain: MSESGEMSEFGYIMELIAKGKVTIKNIERELICPACKELFTHPLILPCQHSICHKCVKELLLTLDDSFNDVGSDNSNQSSPRLRLPSPSMDKIDRINRPGWKRNSLTPRTTVFPCPGCEHDVDLGERGINGLFRNFTLETIVERYRQAARAATAIMCDLCKPPPQESTKSCMDCSASYCNECFKIHHPWGTIKAQHEYVGPTTNFRPKILMCPEHETERINMYCELCRRPVCHLCKLGGNHANHRVTTMSSAYKTLKEKLSKDIDYLIGKESQVKSQISELNLLMKETECNGERAKEEAITHFEKLFEVLEERKSSVLKAIDSSKKLRLDKFQTQMEEYQGLLENNGLVGYAQEVLKETDQSCFVQTAKQLHLRIQKATESLKSFRPAAQTSFEDYVVNTSKQTELLGELSFFSSGIDVPEINEEQSKVYNNALINWHHPEKDKADSYVLEYRKINRDDEMSWNEIEVCGTSKIIQDLENSSTYAFRVRAYKGSICSPCSRELILHTPPAPVFSFLFDEKCGYNNEHLLLNLKRDRVESRAGFNLLLAAERIQVGYYTSLDYIIGDTGITKGKHFWAFRVEPYSYLVKVGVASSDKLQEWLRSPRDAVSPRYEQDSGHDSGSEDACFDSSQPFTLVTIGMQKFFIPKSPTSSNEPENRVLPMPTSIGIFLDCDKGKVDFYDMDQMKCLYERQVDCSHTLYPAFALMGSGGIQLEEPITAKYLEYQEDM
Regarding B2, in assay [2], the binding result was “binds”.
